Results from article PMC12826058.
For at least one entry, the source does not settle the construct or the ends of the probe. Weaker means in comparison with the reference protein, sequence or condition of that experiment. Where a protein sequence is shown, tags need not be part of it.

Target: T1, His6-AdiY (Escherichia coli K-12 MG1655) (UniProt P33234)
T1 sequence (looked up): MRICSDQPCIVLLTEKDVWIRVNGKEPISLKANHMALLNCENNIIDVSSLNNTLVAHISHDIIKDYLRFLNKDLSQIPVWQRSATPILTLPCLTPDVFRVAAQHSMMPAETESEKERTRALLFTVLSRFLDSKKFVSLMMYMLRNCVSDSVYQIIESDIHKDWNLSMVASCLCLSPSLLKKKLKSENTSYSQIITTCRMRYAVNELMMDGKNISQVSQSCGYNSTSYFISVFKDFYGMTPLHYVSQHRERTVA
Experiment: SPR
Settings: pH 6.5, phosphate; SPR (Biacore T200, SA chip), 25 C, 50 mM sodium phosphate pH 6.0-7.0 (50 mM citrate at pH 5.5 and 5.8), 250 mM NaCl, 2% glycerol, 2 mM DTT, 0.005% P20; 1:1 Langmuir fit; recombinant protein; residues 1-253; protein details: N-terminal His6; label: biotin (5' of reverse primer); probe letters rebuilt from the primers and the genome

TCTACGGTATGACGCCGCTGCATTATGTTAGTCAGCACAGAGAACGCACTGTCGCCTGATTTTTAACCTTAACGAAGAGCTATATTAATAACGGCATCAGCGATAACCCGGTCGATAATAATTCAACTATCGAATGCAGGCGTATGATATGACGTAATTTATTGTCACGAAGCTCGCCTTCGCAGGAGTTTAATT (double strand) [PadiC (adiC promoter)]
binding result: binds more weakly

TGCTTACCCGGTTATGAAGGAATCTTCGTTGCGGGCAAGTATCTTCCGGCCTTTTCGGGCTGTAAAGCGCGTGAAAAACAAACATTTTTGAAATATTTAGTTTTATAAACAATACGTTATGTGATTATTTTAAATTATTTTCACTGCTTATTATCGACGGCTAAACTATTTTTTTGGCTGATACTGATATCGTCT (double strand) [PadiA (adiA promoter)]
binding result: binds more weakly
